Among the data in paper PMC12164589 are binding values, retold here.

No constants are given. Whether binding was seen depends on the method and setting. Binding calls can cover weak binding; strength is not graded here. For part of these data: Binding seen in cells or lysates may run through a third protein. For part of these data: Tags and fused reporters may be left off the sequences shown.

In experiment [1] the target is T1, recombinant AUR1 of the pull-down with CCS52A2_(WD40) and CCS52B_(WD40) (Arabidopsis thaliana) (UniProt Q9M077).
T1 sequence: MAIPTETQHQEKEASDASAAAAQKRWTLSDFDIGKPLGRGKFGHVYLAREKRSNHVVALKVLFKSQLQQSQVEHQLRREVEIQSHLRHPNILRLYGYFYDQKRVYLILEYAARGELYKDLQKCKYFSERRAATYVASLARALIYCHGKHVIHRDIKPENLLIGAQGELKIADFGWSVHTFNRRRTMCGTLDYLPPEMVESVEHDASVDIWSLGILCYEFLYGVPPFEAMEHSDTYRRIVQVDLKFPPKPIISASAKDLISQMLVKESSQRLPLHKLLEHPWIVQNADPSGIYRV
Nature of the experiment: pull-down; 4 ug purified proteins with different epitopes in 500 uL binding buffer (300 mM NaCl, 50 mM Tris-HCl pH 8.0, 1 mM PMSF, 1 mM DTT), 4 C 4 h, then Ni-NTA beads 2 h; His- or SUMO-tagged AUR1 held on Ni-NTA, GST proteins detected by anti-GST; both purified.

The target of experiment [2] is AUR1△D-box-nLUC (Arabidopsis thaliana). The experiment is described as follows: split reporter; split-luciferase complementation, nLUC and cLUC fusions co-expressed in N. benthamiana leaves with P19.
The target in experiment [3] is AUR1△D-box-FLAG (Arabidopsis thaliana). Nature of the experiment: co-IP; proteins transiently co-expressed in N. benthamiana leaves; supernatants incubated with affinity beads (anti-FLAG or anti-GFP) at 4 C for 4 h, washed 3 times, immunoblot. On the technique in general: A western blot detects proteins with antibodies after separation by electrophoresis.
The target in experiment [4] is AUR1 D-box domain fragment as yeast two-hybrid bait in pGBKT7 (Arabidopsis thaliana). Nature of the experiment: two-hybrid; full-length AUR1 and deletion derivatives as bait in pGBKT7, preys in pGADT7; growth on SD/-WLHA, SD/-WLH and SD/-WL.

“CCS52A2_(WD40), truncated form including WD40 repeats (GST fusion) (Arabidopsis thaliana) (domain or fragment)”: the binding result in experiment [1] is “binds”.

Regarding “CCS52B_(WD40), truncated form including WD40 repeats (GST fusion) (Arabidopsis thaliana) (domain or fragment)”, the binding result in experiment [1] is reported as “binds”.

B1: CDC20.1-cLUC (protein, UniProt Q9SZA4 1-457)
chain: MDAGMNNTSSHYKTQARCPLQEHFLPRKPSKENLDRFIPNRSAMNFDYAHFALTEGRKGKDQTAAVSSPSKEAYRKQLAETMNLNHTRILAFRNKPQAPVELLPSNHSASLHQQPKSVKPRRYIPQTSERTLDAPDIVDDFYLNLLDWGSANVLAIALDHTVYLWDASTGSTSELVTIDEEKGPVTSINWAPDGRHVAVGLNNSEVQLWDSASNRQLRTLKGGHQSRVGSLAWNNHILTTGGMDGLIINNDVRIRSPIVETYRGHTQEVCGLKWSGSGQQLASGGNDNVVHIWDRSVASSNSTTQWLHRLEEHTSAVKALAWCPFQANLLATGGGGGDRTIKFWNTHTGACLNSVDTGSQVCSLLWSKNERELLSSHGFTQNQLTLWKYPSMVKMAELTGHTSRVLYMAQSPDGCTVASAAGDETLRFWNVFGVPETAKKAAPKAVSEPFSHVNRIR
Take B1: the binding result in experiment [2] is “binds”.

B2: CDC20.1-GFP (protein, UniProt Q9SZA4 1-457)
chain: B1 chain
As to B2, in experiment [3], the binding result is recorded as “binds”.

B3: full-length APC10 as yeast two-hybrid prey in pGADT7 (protein, UniProt Q9ZPW2 1-192)
chain: MATESSESEEEGKISGGNYKLIIDDDLREMGKNAAWSVSSCKPGNGVTTLRDDNLETYWQSDGLQPHLINIQFQKKVKLQLVVLYVDFKLDESYTPSKISIRAGDGFHNLKEIKSVELVKPTGWVCLSLSGTDPRETFVNTFMLQIAILSNHLNGRDTHIRQIKVYGPRPNPIPHQPFQFTSMEFLTYSTLR
As for B3, the binding result in experiment [4] is reported as “binds”.

B4: APC10-cLUC (protein, UniProt Q9ZPW2 1-192)
chain: B3 chain
As to B4, the binding entry in experiment [2] is recorded as “no binding”.
